Reference: article PMC3792052, “Structural Analysis of Intermolecular Interactions in the Kinesin Adaptor Complex Fasciculation and Elongation Protein Zeta 1/ Short Coiled-Coil Protein (FEZ1/SCOCO)” (PLoS ONE, 2013)
No constants are given. Whether binding was seen depends on the method and setting. A result given as binding can be weak or reduced; the word gives no strength. For part of these data: Sequences can lack the tags named with a protein.

Tests used:
FEZ1 (221-392) (human) = biological target: T1, FEZ1 (221-392) (human) (UniProt Q99689); assay: two-hybrid; yeast, beta-galactosidase activity; empty vector pBTM116 as control
T1 sequence: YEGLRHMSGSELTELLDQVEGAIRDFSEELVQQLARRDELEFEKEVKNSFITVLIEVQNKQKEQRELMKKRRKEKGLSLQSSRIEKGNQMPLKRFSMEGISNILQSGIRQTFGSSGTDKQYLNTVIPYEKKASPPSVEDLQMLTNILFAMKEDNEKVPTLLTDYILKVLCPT

[1] = biological target: T2, 6xHis-FEZ1 (1-392) (human) (UniProt Q99689); assay: cross-linking; 5 x 10^-10 mol of each purified recombinant protein, 1.25 mM DSS, 2 h, room temperature; shifted bands of 12% SDS-PAGE digested with trypsin, LTQ Velos Orbitrap MS, MassMatrix search; done two times; both purified
T2 sequence: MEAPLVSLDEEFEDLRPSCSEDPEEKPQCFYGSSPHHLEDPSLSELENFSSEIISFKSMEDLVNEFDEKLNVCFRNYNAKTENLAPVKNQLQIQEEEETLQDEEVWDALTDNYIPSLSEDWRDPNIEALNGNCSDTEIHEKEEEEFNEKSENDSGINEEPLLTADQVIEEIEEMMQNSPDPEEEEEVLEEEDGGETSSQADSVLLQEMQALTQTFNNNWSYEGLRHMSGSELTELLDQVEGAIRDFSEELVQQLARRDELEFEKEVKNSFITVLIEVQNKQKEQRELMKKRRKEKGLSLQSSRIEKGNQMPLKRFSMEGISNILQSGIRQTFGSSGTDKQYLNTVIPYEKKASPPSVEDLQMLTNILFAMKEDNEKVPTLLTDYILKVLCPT

Row | Substance | binding (FEZ1 (221-392) (human)) | binding [1]
1 | SCOCO (2-82), two-hybrid fusion (human) | binds | 
2 | 6xHis-SCOCO (2-82) (human) |  | binds
3 | SCOCO (2-65), two-hybrid fusion (human) (domain or fragment) | binds | 
